Where a name gives a salt, the structure may show the parent alone. Some of the results follow. Hit calls seldom repeat between salt and free forms of one compound.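 Kinases, fused to nanoluciferase, were expressed in K562 cells; luminescence was measured every 4 h from 2 to 18 h as percent of control (DMSO = 100%, positive control = 0%). A time point is decreased if signal falls significantly (2 sigma). Hits were called by the authors by a rule that is not shown; the count of time points alone does not decide it.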
Tests used:
Experiment in all cases: kinase-Nluc reporter destabilization hit call (1 = scored as downregulated) (binary); higher = compound decreases kinase abundance
Details in all cases: K562; 2-18 h
CDK7 = CDK7 (UniProt P50613)
CDK9 = CDK9 (UniProt P50750)
CHEK2 = CHEK2 (UniProt O96017)
CSF1R = CSF1R (UniProt P07333)
CSK = CSK (UniProt P41240)
CSNK1A1 = CSNK1A1 (UniProt P48729)
CSNK1D = CSNK1D (UniProt P48730)
DDR1 = DDR1 (UniProt Q08345)
DYRK1B = DYRK1B (UniProt Q9Y463)
DYRK2 = DYRK2 (UniProt Q92630)

Protein sequences, listed by entry. Tags and fused reporters are not part of them. Lines headed by an entry give the natural chain unless they say otherwise; changes in a name come on top.
UniProt P50613: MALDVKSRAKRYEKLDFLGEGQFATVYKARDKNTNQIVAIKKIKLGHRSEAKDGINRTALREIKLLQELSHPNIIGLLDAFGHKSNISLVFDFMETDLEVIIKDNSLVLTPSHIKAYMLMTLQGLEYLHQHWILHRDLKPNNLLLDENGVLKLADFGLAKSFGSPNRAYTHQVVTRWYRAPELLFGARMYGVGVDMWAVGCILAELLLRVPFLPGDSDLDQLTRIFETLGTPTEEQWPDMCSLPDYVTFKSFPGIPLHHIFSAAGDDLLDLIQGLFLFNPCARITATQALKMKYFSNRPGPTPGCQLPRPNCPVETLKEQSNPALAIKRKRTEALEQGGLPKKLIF
UniProt P50750, whole entry: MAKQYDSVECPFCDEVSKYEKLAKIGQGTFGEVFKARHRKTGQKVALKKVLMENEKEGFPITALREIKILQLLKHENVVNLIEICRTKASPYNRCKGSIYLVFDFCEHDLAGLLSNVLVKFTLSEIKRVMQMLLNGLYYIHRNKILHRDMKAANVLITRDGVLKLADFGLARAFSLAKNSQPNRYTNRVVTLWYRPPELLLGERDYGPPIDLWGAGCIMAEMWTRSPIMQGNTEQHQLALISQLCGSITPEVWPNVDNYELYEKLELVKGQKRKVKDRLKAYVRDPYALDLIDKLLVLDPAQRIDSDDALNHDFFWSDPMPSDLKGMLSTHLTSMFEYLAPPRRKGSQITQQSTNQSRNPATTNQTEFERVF
UniProt O96017, whole entry: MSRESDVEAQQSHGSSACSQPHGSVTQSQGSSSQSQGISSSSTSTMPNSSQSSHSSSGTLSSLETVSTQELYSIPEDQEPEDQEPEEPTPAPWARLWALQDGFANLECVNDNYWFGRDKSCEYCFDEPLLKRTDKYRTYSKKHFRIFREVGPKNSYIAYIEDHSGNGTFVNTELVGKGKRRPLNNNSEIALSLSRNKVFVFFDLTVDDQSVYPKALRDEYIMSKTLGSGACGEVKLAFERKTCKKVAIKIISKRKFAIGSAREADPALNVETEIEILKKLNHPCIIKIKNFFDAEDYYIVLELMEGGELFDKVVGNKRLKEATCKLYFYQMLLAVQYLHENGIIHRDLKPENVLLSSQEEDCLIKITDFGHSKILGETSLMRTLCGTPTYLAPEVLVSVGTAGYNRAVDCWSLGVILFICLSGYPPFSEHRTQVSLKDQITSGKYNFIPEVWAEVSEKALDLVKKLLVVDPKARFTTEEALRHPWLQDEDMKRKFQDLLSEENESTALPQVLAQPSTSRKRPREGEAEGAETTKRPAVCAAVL
UniProt P07333, whole entry: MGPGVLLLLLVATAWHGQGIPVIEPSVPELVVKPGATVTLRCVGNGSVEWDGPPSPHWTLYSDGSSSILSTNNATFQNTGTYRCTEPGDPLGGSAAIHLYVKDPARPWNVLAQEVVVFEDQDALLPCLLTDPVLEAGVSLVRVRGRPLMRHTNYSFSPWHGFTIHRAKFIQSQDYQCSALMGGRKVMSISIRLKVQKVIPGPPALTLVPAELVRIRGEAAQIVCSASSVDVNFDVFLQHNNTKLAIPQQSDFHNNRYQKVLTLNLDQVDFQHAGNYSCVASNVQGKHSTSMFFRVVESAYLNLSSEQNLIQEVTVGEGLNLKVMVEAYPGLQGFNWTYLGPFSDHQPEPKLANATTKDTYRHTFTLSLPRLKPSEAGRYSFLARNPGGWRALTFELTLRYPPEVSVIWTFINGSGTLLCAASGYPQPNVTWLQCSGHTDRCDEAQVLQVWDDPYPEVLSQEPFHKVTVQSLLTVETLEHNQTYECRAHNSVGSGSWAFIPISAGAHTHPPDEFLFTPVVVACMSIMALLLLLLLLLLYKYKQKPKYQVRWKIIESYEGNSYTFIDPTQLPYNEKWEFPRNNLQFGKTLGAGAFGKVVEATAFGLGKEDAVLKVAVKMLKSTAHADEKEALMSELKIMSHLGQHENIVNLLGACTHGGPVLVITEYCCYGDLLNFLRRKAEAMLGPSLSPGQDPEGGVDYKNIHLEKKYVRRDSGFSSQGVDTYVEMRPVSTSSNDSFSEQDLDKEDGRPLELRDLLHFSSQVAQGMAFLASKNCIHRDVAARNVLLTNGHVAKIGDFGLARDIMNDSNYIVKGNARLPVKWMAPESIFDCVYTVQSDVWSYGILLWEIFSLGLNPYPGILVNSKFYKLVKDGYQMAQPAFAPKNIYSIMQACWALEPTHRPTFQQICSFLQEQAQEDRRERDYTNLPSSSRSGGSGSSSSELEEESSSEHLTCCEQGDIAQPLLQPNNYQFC
UniProt P41240: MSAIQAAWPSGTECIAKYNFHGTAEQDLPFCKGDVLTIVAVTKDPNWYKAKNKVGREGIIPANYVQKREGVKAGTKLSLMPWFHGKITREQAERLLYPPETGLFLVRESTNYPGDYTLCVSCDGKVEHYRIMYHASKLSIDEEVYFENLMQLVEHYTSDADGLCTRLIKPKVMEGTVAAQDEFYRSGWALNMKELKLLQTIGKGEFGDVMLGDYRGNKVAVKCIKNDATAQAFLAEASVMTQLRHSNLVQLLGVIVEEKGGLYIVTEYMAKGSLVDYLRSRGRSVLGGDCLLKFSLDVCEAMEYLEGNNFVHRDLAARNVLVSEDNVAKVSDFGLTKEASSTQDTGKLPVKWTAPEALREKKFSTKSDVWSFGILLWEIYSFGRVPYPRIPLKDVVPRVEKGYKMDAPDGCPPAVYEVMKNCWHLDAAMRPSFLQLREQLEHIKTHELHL
UniProt P48729: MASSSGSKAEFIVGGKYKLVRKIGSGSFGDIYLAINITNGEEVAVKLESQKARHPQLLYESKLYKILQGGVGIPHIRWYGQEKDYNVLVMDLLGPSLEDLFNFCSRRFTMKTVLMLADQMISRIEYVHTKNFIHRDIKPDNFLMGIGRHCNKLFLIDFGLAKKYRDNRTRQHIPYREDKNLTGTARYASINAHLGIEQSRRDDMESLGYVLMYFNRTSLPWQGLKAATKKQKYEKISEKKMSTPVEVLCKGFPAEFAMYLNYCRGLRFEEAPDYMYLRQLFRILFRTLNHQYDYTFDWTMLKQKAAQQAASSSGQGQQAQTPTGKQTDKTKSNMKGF
UniProt P48730: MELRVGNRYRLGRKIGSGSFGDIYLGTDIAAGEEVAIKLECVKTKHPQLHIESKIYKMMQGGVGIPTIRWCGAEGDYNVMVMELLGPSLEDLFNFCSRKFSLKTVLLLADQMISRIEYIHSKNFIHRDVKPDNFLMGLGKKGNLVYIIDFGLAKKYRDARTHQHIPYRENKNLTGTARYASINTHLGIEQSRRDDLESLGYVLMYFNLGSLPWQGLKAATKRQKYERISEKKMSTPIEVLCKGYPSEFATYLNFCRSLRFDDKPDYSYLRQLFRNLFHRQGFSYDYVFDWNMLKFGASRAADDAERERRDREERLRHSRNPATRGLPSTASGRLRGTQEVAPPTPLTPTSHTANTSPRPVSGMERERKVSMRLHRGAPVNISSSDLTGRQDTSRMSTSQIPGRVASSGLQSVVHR
UniProt Q08345: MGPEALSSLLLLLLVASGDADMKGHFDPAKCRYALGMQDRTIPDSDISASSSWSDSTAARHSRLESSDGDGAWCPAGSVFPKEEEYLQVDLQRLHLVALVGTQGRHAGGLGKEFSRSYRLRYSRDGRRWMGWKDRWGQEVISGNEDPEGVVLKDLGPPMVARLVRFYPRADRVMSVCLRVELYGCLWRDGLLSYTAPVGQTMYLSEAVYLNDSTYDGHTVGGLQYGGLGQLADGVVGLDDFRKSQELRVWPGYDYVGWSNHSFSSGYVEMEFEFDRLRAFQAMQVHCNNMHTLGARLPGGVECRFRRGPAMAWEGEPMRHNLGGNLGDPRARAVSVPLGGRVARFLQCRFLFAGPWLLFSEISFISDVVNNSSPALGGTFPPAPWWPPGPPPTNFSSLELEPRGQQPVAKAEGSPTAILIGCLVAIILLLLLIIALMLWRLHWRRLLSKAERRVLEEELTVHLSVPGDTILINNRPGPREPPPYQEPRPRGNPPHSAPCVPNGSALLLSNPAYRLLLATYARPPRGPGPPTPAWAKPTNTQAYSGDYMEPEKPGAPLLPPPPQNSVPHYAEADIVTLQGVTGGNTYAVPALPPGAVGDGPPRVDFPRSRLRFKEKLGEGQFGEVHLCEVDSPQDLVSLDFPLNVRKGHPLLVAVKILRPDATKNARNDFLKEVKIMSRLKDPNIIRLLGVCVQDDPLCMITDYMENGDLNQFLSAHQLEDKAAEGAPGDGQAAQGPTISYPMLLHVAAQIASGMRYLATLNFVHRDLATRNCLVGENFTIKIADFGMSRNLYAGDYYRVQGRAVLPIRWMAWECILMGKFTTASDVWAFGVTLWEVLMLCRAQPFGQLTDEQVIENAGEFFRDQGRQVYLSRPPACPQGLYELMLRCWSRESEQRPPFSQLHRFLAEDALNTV
UniProt Q9Y463, whole entry, looked up: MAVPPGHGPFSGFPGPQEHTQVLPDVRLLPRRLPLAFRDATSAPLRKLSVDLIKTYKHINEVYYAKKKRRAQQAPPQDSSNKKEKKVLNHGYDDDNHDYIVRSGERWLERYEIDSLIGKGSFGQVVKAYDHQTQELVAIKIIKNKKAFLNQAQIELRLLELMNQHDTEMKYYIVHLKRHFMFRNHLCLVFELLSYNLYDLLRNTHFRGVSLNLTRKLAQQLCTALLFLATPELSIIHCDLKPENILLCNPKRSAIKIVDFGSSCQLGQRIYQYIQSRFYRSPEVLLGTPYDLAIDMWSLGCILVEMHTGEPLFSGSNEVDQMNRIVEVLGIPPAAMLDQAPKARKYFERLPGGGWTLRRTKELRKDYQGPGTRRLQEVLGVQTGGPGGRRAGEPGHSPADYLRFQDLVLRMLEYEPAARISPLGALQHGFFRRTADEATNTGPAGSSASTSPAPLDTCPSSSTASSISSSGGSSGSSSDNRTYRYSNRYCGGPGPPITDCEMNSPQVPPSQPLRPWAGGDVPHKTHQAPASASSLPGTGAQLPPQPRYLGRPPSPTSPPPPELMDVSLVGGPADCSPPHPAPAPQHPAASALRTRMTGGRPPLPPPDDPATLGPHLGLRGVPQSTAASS
UniProt Q92630: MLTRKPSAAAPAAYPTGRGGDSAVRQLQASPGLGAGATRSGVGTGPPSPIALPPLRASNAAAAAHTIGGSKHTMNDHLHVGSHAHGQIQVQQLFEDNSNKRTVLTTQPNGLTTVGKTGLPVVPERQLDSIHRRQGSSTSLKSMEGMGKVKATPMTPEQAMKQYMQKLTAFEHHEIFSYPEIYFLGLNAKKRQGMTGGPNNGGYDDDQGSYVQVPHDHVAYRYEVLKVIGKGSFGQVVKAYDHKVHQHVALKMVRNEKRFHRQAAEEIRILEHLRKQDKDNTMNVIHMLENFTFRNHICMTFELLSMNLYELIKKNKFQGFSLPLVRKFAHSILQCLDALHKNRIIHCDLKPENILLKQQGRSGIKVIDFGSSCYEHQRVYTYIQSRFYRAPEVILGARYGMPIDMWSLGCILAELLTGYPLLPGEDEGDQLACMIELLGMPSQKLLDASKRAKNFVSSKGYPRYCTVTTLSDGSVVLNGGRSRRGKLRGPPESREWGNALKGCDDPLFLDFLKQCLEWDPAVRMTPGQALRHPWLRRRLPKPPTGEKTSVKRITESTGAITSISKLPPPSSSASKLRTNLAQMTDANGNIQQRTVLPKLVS

Row | SMILES | kinase-Nluc reporter destabilization hit call (CDK7) | kinase-Nluc reporter destabilization hit call (CDK9) | kinase-Nluc reporter destabilization hit call (CHEK2) | kinase-Nluc reporter destabilization hit call (CSF1R) | kinase-Nluc reporter destabilization hit call (CSK) | kinase-Nluc reporter destabilization hit call (CSNK1A1) | kinase-Nluc reporter destabilization hit call (CSNK1D) | kinase-Nluc reporter destabilization hit call (DDR1) | kinase-Nluc reporter destabilization hit call (DYRK1B) | kinase-Nluc reporter destabilization hit call (DYRK2)
1 | CC(C)(O)c1cc2nc(-c3cnc(N)nc3)nc(N3CCOCC3)c2s1 (2.5 µM) | inactive: 0 | inactive: 0 | inactive: 0 | inactive: 0 | inactive: 0 | inactive: 0 | inactive: 0 | inactive: 0 | inactive: 0 | inactive: 0
2 | Cc1ccc(-n2c(-c3ccc(O)cc3O)n[nH]c2=O)cc1 (10 µM) | active: 1 | inactive: 0 | inactive: 0 | active: 1 | inactive: 0 | inactive: 0 | inactive: 0 | inactive: 0 | inactive: 0 | inactive: 0
3 | CC(C)(O)c1cc(Nc2cc(Oc3cn(C4CC4)nc3C3CCOCC3)ccn2)ccn1 (10 µM) | inactive: 0 | inactive: 0 | inactive: 0 | inactive: 0 | inactive: 0 | inactive: 0 | inactive: 0 | inactive: 0 | inactive: 0 | inactive: 0
4 | NC(=O)c1nc(-c2c(F)cccc2Cl)oc1Nc1ccc(C(=O)N2CCOCC2)cc1 (10 µM) | inactive: 0 | inactive: 0 | inactive: 0 | inactive: 0 | inactive: 0 | inactive: 0 | inactive: 0 | inactive: 0 | inactive: 0 | inactive: 0
5 | O=C(Nc1nc2cccc(-c3ccc(CN4CCS(=O)(=O)CC4)cc3)n2n1)C1CC1 [Filgotinib] (2.5 µM) | inactive: 0 | inactive: 0 | inactive: 0 | inactive: 0 | inactive: 0 | inactive: 0 | inactive: 0 | inactive: 0 | inactive: 0 | inactive: 0
6 | CNS(=O)(=O)Nc1nccc(Cc2c(C)c3ccc(Oc4ncccn4)cc3oc2=O)c1F (10 µM) | inactive: 0 | inactive: 0 | inactive: 0 | inactive: 0 | inactive: 0 | inactive: 0 | inactive: 0 | inactive: 0 | inactive: 0 | inactive: 0
7 | C[C@@H](Nc1cc(F)cc(F)c1)c1cc(C(=O)N(C)C)cc2c(=O)cc(N3CCOCC3)oc12 (10 µM) | inactive: 0 | inactive: 0 | inactive: 0 | inactive: 0 | inactive: 0 | inactive: 0 | inactive: 0 | inactive: 0 | inactive: 0 | inactive: 0
8 | Cc1ccc(-c2csc(Cn3nc(CC4OCCCO4)c4ccccc4c3=O)n2)cc1 (10 µM) | inactive: 0 | inactive: 0 | inactive: 0 | inactive: 0 | inactive: 0 | inactive: 0 | inactive: 0 | inactive: 0 | inactive: 0 | inactive: 0
9 | O=c1cc(-c2ccc(O)cc2)oc2cc(O)c(O)c(O)c12 [Scutellarein] (10 µM) | inactive: 0 | inactive: 0 | inactive: 0 | inactive: 0 | inactive: 0 | inactive: 0 | inactive: 0 | inactive: 0 | inactive: 0 | inactive: 0
10 | CCn1c(-c2nonc2N)nc2c(C#CCO)ncc(OCCCN)c21 [AKT Kinase Inhibitor] (10 µM) | inactive: 0 | inactive: 0 | inactive: 0 | inactive: 0 | inactive: 0 | inactive: 0 | inactive: 0 | inactive: 0 | inactive: 0 | inactive: 0
11 | C[C@H](CC[C@@H](O)C(C)(C)O)[C@H]1CC[C@@]2(C)[C@@H]3CC=C4[C@@H](CC[C@H](O)C4(C)C)[C@]3(C)[C@H](O)C[C@]12C [Mogrol] (10 µM) | inactive: 0 | inactive: 0 | inactive: 0 | inactive: 0 | inactive: 0 | inactive: 0 | inactive: 0 | inactive: 0 | inactive: 0 | inactive: 0
12 | COc1ncc2cc(C(=O)Nc3cc(C(=O)NCc4cccc(Cl)c4)ccc3Cl)c(=O)[nH]c2n1 (2.5 µM) | inactive: 0 | inactive: 0 | inactive: 0 | inactive: 0 | inactive: 0 | inactive: 0 | inactive: 0 | inactive: 0 | inactive: 0 | inactive: 0
13 | CN(C)C(=O)c1cc2cnc(Nc3ccc(NC(=O)C4(C(=O)Nc5ccc(F)cc5)CC4)cc3)nc2n1C1CCCC1 (2 µM) | inactive: 0 | inactive: 0 | inactive: 0 | inactive: 0 | inactive: 0 | inactive: 0 | inactive: 0 | inactive: 0 | inactive: 0 | inactive: 0
14 | CS(=O)(=O)N1CCc2c(-c3cnc(N)nc3)nc(N3CCOCC3)nc21 (10 µM) | inactive: 0 | inactive: 0 | inactive: 0 | inactive: 0 | inactive: 0 | inactive: 0 | inactive: 0 | inactive: 0 | inactive: 0 | inactive: 0
15 | N#C/C(=C\c1ccc[nH]1)c1ccc(Cl)c(Cl)c1 (2.5 µM) | inactive: 0 | inactive: 0 | inactive: 0 | inactive: 0 | inactive: 0 | inactive: 0 | inactive: 0 | inactive: 0 | inactive: 0 | inactive: 0
16 | COc1cc(OC)c(/C=C/S(=O)(=O)Cc2ccc(OC)c(NCC(=O)O)c2)c(OC)c1 [Rigosertib (sodium)] (10 µM) | inactive: 0 | inactive: 0 | inactive: 0 | inactive: 0 | inactive: 0 | inactive: 0 | inactive: 0 | inactive: 0 | inactive: 0 | inactive: 0
17 | Cc1c(C(=O)Nc2ccc(Oc3ccnc4cc(OCC(C)(C)O)ccc34)c(F)c2)c(=O)n(-c2ccccc2)n1C [Ningetinib Tosylate] (10 µM) | inactive: 0 | inactive: 0 | inactive: 0 | inactive: 0 | inactive: 0 | inactive: 0 | inactive: 0 | inactive: 0 | inactive: 0 | inactive: 0
18 | O=C(Nc1nccs1)C(c1cc(F)ccc1O)N1Cc2ccc(-c3ccc(N4CCNCC4)cc3)cc2C1=O (racemic) (10 µM) | inactive: 0 | inactive: 0 | inactive: 0 | inactive: 0 | inactive: 0 | inactive: 0 | inactive: 0 | inactive: 0 | inactive: 0 | inactive: 0
19 | COC(=O)/C=C/c1ccc(O)c(OC)c1 [Ferulic acid methyl ester] (10 µM) | inactive: 0 | inactive: 0 | inactive: 0 | inactive: 0 | inactive: 0 | inactive: 0 | inactive: 0 | inactive: 0 | inactive: 0 | inactive: 0
20 | CCN1C(C)(C)CC(Oc2ccc(C(=O)Nc3ccc(NC(=O)Nc4cc(C(C)(C)C)on4)cc3)nc2)CC1(C)C (10 µM) | inactive: 0 | inactive: 0 | inactive: 0 | inactive: 0 | inactive: 0 | inactive: 0 | inactive: 0 | inactive: 0 | inactive: 0 | inactive: 0
21 | CNC(=O)c1c(C)oc2cc(Oc3ncnc4cc(OC)c(OC)cc34)ccc12 [Fruquintinib] (10 µM) | inactive: 0 | inactive: 0 | inactive: 0 | inactive: 0 | inactive: 0 | inactive: 0 | inactive: 0 | inactive: 0 | inactive: 0 | inactive: 0
22 | CN(C/C=C/C(=O)Nc1ccc(C(=O)Nc2cccc(Nc3ncc(Cl)c(-c4c[nH]c5ccccc45)n3)c2)cc1)CCCNC(=O)NCCOCCOCCOCCNC(=O)CCCC[C@@H]1SC[C@@H]2NC(=O)N[C@@H]21 (2.5 µM) | inactive: 0 | inactive: 0 | inactive: 0 | inactive: 0 | inactive: 0 | inactive: 0 | inactive: 0 | inactive: 0 | inactive: 0 | inactive: 0
23 | OCCC#Cc1nc(-c2ccc(F)cc2)c(-c2ccncc2)n1CCCc1ccccc1 (2.5 µM) | inactive: 0 | inactive: 0 | inactive: 0 | inactive: 0 | inactive: 0 | inactive: 0 | inactive: 0 | inactive: 0 | inactive: 0 | inactive: 0
24 | Clc1ccc(Nc2cccc(-c3cn[nH]c3)c2)cc1 (10 µM) | inactive: 0 | inactive: 0 | inactive: 0 | inactive: 0 | inactive: 0 | inactive: 0 | inactive: 0 | inactive: 0 | inactive: 0 | inactive: 0
25 | C[C@H](Nc1ccc2c(c1)OCCn1cc(N3C(=O)OC[C@H]3C(F)F)nc1-2)C(N)=O (10 µM) | inactive: 0 | inactive: 0 | inactive: 0 | inactive: 0 | inactive: 0 | inactive: 0 | inactive: 0 | inactive: 0 | inactive: 0 | active: 1
26 | C=CC(=O)Nc1cccc(Nc2nc(Nc3ccc(Oc4ccnc(C(=O)NC)c4)cc3)ncc2F)c1 (2.5 µM) | inactive: 0 | inactive: 0 | inactive: 0 | inactive: 0 | inactive: 0 | inactive: 0 | inactive: 0 | inactive: 0 | inactive: 0 | inactive: 0
27 | C=CC(=O)Nc1cccc(Oc2nc(Nc3ccc(N4CCN(C)CC4)cc3)nc3ccsc23)c1 [Olmutinib] (2.5 µM) | inactive: 0 | inactive: 0 | inactive: 0 | inactive: 0 | inactive: 0 | inactive: 0 | inactive: 0 | inactive: 0 | inactive: 0 | inactive: 0
28 | COc1cccc(Nc2ncnn3ccc(CN4CC[C@@H](N)[C@H](O)C4)c23)c1 (2.5 µM) | inactive: 0 | inactive: 0 | inactive: 0 | inactive: 0 | inactive: 0 | inactive: 0 | inactive: 0 | inactive: 0 | inactive: 0 | inactive: 0
29 | CCC(=O)N1CC[C@H](Nc2ncnc3c2CN(c2cnc(OC)c(C(F)(F)F)c2)CC3)C1 [Leniolisib] (10 µM) | inactive: 0 | inactive: 0 | inactive: 0 | inactive: 0 | inactive: 0 | inactive: 0 | inactive: 0 | inactive: 0 | inactive: 0 | inactive: 0

3 compounds out of the list, arranged by heavy-atom count, ascending:
Row | SMILES | kinase-Nluc reporter destabilization hit call (CDK7) | kinase-Nluc reporter destabilization hit call (CDK9) | kinase-Nluc reporter destabilization hit call (CHEK2) | kinase-Nluc reporter destabilization hit call (CSF1R) | kinase-Nluc reporter destabilization hit call (CSK) | kinase-Nluc reporter destabilization hit call (CSNK1A1) | kinase-Nluc reporter destabilization hit call (CSNK1D) | kinase-Nluc reporter destabilization hit call (DDR1) | kinase-Nluc reporter destabilization hit call (DYRK1B) | kinase-Nluc reporter destabilization hit call (DYRK2)
15 | N#C/C(=C\c1ccc[nH]1)c1ccc(Cl)c(Cl)c1 (2.5 µM) | inactive: 0 | inactive: 0 | inactive: 0 | inactive: 0 | inactive: 0 | inactive: 0 | inactive: 0 | inactive: 0 | inactive: 0 | inactive: 0
14 | CS(=O)(=O)N1CCc2c(-c3cnc(N)nc3)nc(N3CCOCC3)nc21 (10 µM) | inactive: 0 | inactive: 0 | inactive: 0 | inactive: 0 | inactive: 0 | inactive: 0 | inactive: 0 | inactive: 0 | inactive: 0 | inactive: 0
12 | COc1ncc2cc(C(=O)Nc3cc(C(=O)NCc4cccc(Cl)c4)ccc3Cl)c(=O)[nH]c2n1 (2.5 µM) | inactive: 0 | inactive: 0 | inactive: 0 | inactive: 0 | inactive: 0 | inactive: 0 | inactive: 0 | inactive: 0 | inactive: 0 | inactive: 0

Reference: the supplement of paper PMC12823440, “Inhibitors supercharge kinase turnover through native proteolytic circuits” (Nature, 2025)
